PubChem BioAssay AID2551 (National Center for Advancing Translational Sciences (NCATS), 2010)
Among all 310,000 compounds or so, about 17,000 (5.5%) were called active. The inconclusive results got no clear call from the source; some entries with a clear call stand among them for comparison. The call rests on the fitted dose curve; in most records, active means well fitted inhibition curve with a large enough effect; inconclusive means small, poorly fitted or top-dose-only effect, or effect the other way; inactive means no such curve, though single readings can be large or run the other way. Potencies beside an inconclusive call are fits to weak or partial responses and may not hold up.

The chains behind the UniProt entries cited, without tags or fusion partners. Where a name states a change or a piece, a line headed by the entry shows the natural chain unless it says otherwise.
UniProt P51450: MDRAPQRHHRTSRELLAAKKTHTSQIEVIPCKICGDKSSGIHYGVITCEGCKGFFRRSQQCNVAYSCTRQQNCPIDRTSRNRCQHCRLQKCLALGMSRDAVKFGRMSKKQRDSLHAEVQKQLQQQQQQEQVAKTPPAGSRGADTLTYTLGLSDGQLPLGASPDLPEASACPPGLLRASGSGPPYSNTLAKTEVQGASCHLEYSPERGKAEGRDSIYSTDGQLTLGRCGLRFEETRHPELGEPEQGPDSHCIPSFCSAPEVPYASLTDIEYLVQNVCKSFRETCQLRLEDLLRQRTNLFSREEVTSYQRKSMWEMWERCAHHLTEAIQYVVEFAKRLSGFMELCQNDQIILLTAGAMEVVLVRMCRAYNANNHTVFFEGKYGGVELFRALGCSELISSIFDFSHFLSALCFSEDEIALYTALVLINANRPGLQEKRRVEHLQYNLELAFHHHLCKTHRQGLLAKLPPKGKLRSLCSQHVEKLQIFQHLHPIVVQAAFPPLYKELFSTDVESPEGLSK

target: Nuclear receptor ROR-gamma (Mus musculus) (UniProt P51450); test: qHTS for inhibitors of ROR gamma transcriptional activity; conditions: Drosophila S2 Gal4-RORgamma UAS-luciferase reporter, 20 h; activity change, negative = inhibition: at 53.6 µM (top of the series); further: nearly all actives have a fitted effect of over 60% in size
Procedure, shortened: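 Stable Schneider cell line, Gal4 DNA-binding domain fused to ROR gamma, UAS-luciferase. Cmpd 1 hr RT → CuSO4 700 uM final → 20 hr RT → luciferase reagent 10 min → luminescence.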
On the % scale 0 is the no-effect control and ±100 the full control effect; potency means the concentration at half of the fitted maximal effect.

Structure (SMILES) | Potency | activity change, negative = inhibition
COc1ccc(O[C@H]2C=C[C@@H](c3ccccc3)O[C@@H]2COC(=O)CC/C(C)=N/OC[C@@H](O)COCc2ccco2)cc1 | inconclusive: 20 µM [activator, single point] | 
O=C(CCl)Nc1ccc(Oc2cnc3ccccc3n2)cc1 | inconclusive: 22.4 µM [inhibitor, single point] | 
COc1ccccc1CN(Cc1nc2ccccc2c(=O)[nH]1)C(=O)Nc1cccc(C)c1 | active: 7.08 µM | 
COc1ccc(NC(=O)Cn2cc(C(C)=O)c3ccccc32)cc1 | inconclusive: 11.2 µM [activator, partial curve] | 
Cc1nc(NC(=O)c2cnccn2)ccc1Br |  | inactive: -41.8%
COc1ccccc1CC(=O)Nc1nc(-c2ccc(F)c(F)c2)cs1 | inconclusive: 35.5 µM [activator, single point] | 
CCS(=O)(=O)N1CCN(c2ccc(C(=O)NC34CC5CC(CC(C5)C3)C4)cc2[N+](=O)[O-])CC1 | inconclusive: 14.1 µM [activator, partial curve] | 
CC(C)NC(=S)N/N=C/c1ccc(C(C)(C)C)cc1 | active: 0.501 µM | 
CCSc1nnc(NC(=O)CSc2c(Cl)cccc2Cl)s1 | active: 11.2 µM | 
Cc1ccc(-c2cc3nc(C)cc(NCc4ccco4)n3n2)cc1 | inconclusive: 31.6 µM [inhibitor, single point] | 
OC[C@@H](O)C(O)[C@@H](O)CO (stereo partly specified) |  | inactive: 1.61%
Cc1ccccc1NC1c2ccccc2C(=O)N1Cc1ccco1 (stereo unspecified) |  | inactive: -0.69%
O=C(Nc1ccccc1)Nc1cc(OCC(F)(F)F)cc(OCC(F)(F)F)c1 | inconclusive: 14.1 µM [inhibitor, single point] | 
COc1ccccc1/C=C/C=N/n1c(COc2ccccc2)n[nH]c1=S | active: 3.55 µM | 
CC(=O)N=Nc1[nH]c(N)c2ccccc12 | inconclusive: 11.2 µM [inhibitor, partial curve, poor fit] | 
Cc1ccc(NC(=O)c2cccc(S(=O)(=O)N3CCN(C)CC3)c2)cc1F | inconclusive: 35.5 µM [activator, single point] | 
CC(C)(C)NC(=O)C(=O)N/N=C/c1cccs1 | inconclusive: 35.5 µM [inhibitor, single point] | 
COc1cc(NC(=S)NCCC(c2ccccc2)c2ccccc2)cc(OC)c1 | active: 4.47 µM | 
COc1cccc(CNc2ccccc2O)c1OCc1ccccc1F | inconclusive: 7.08 µM [inhibitor, partial curve, poor fit] | 
Oc1c(C(Nc2ccccn2)c2cccnc2)cc(Cl)c2cccnc12 (stereo unspecified) | active: 3.98 µM | 
CCCc1ccc(OCCNC(=O)c2ccccc2Br)cc1 | inconclusive: 15.8 µM [activator, single point] | 
COc1ccc2nc(NC(=O)c3cccnc3SC)sc2c1 | inconclusive: 15.8 µM [inhibitor, single point] | 
O=C(c1cccc(F)c1)N1CCN(c2cc(N3CCCCC3)c(F)cc2[N+](=O)[O-])CC1 | inconclusive: 35.5 µM [activator, single point] | 

Record cards, as listed above.
CC(=O)N=Nc1[nH]c(N)c2ccccc12 is listed with Potency: inconclusive: 11.2 µM [inhibitor, partial curve, poor fit]
O=C(c1cccc(F)c1)N1CCN(c2cc(N3CCCCC3)c(F)cc2[N+](=O)[O-])CC1 is listed with Potency: inconclusive: 35.5 µM [activator, single point]
Oc1c(C(Nc2ccccn2)c2cccnc2)cc(Cl)c2cccnc12 (stereo unspecified) is listed with Potency: active: 3.98 µM

(listing goes on)

Structure (SMILES) | Potency | activity change, negative = inhibition
Cc1c(C(=O)Nc2ccc(-c3nnc4n3CCCCC4)cc2)oc2ccc(Br)cc12 |  | inactive: 15.8%
Cc1ccc(OCC(=O)NC(=S)Nc2cccc(NC(=O)c3ccccc3)c2)cc1 |  | inactive: -26.3%
COc1cccc(C(=O)Nc2nnc(-c3ccccc3)s2)c1 | inconclusive: 15.8 µM [inhibitor, single point] | 
NNC(=O)CSc1ncc(-c2ccccc2)[nH]1 |  | inactive: -0.267%
CCn1cnc2cc(NC(=O)c3ccco3)ccc21 | inconclusive: 35.5 µM [inhibitor, single point] | 
CC1CCCCN1S(=O)(=O)c1ccc(C(=O)N(CCCN(C)C)c2nc3ccc(Br)cc3s2)cc1 (stereo unspecified) | inconclusive: 28.2 µM [inhibitor, single point] | 
Cc1cnc(CNc2ncncc2-c2ccccc2C)cn1 | inconclusive: 11.2 µM [activator, single point] | 
O=C(CN1C(=O)CC(c2ccco2)Sc2ccccc21)NCc1ccc2c(c1)OCO2 (stereo unspecified) | inconclusive: 0.447 µM [activator, full curve, poor fit] | 
COc1ccc(C(=O)N/C(=C/c2cccc3ccccc23)C(=O)NCCc2c[nH]c3ccccc23)cc1OC | inconclusive: 17.8 µM [activator, single point] | 
Cc1ccc(-n2cccc2C(=O)NS(=O)(=O)c2ccc(C)cc2)cc1 |  | inactive: 17.6%
Fc1ccc(NC(=S)Nc2ccccc2OC(F)F)cc1Cl | inconclusive: 35.5 µM [inhibitor, single point] | 
CCOc1c(Cl)cc(CNCC(O)c2ccccc2)cc1OC (stereo unspecified) | active: 7.08 µM | 
Cc1[nH]c2ccccc2c1C(=O)COC(=O)Cn1c(C)nc2ccccc21 | inconclusive: 20 µM [activator, single point] | 
O=C1CC(c2cccc(Cl)c2)CC(O)=C1C=Nc1cccc(Cl)c1 (stereo unspecified) | inconclusive: 35.5 µM [activator, single point] | 
Cc1ccc(Cl)cc1NC(=O)C(=O)N/N=C/c1ccc2c(c1)OCO2 | inconclusive: 25.1 µM [inhibitor, single point] | 
Cc1cc(/C=N/NC(=O)CC2(C)OCCO2)c(C)n1-c1ccc(Cl)c(Cl)c1 | active: 17.8 µM | 
COc1ccc(CNC(=O)c2cc(-c3ccncc3)nc3c(C)cc(C)cc23)cc1OC | inconclusive: 35.5 µM [inhibitor, single point] | 
COc1ccc(N2CCN(Cc3nc(N)nc(N4CCCc5ccccc54)n3)CC2)cc1 | inconclusive: 35.5 µM [inhibitor, single point] | 
O=C(NC(=S)Nc1ccc(S(=O)(=O)N2CCCCCC2)cc1)c1cccs1 | active: 2.82 µM | 
O=C(COC(=O)c1ccc([N+](=O)[O-])s1)Nc1ccccc1 |  | inactive: -6.08%
Clc1ncnc2scc(-c3ccc(Br)cc3)c12 | active: 11.2 µM | 
COc1ccc(C(=O)NNC(=S)NC(=O)c2cc(-c3ccccc3)nc3ccccc23)cc1 | active: 10 µM | 
Cc1cn(C2OC(COC(=O)c3ccccc3)C(O)C2O)c(=O)[nH]c1=O (stereo unspecified) |  | inactive: -4.24%
